This is one part of the list. Many values rest on one well or one pass, so single values are uncertain.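 Cells were imaged in 1,536-well plates, and nuclei stained with an antibody against cleaved PARP were counted against all DNA-stained nuclei to give the apoptosis fraction. Screening doses were chosen to leave most cells alive, and resting and induced cleaved-PARP levels differ strongly between cell lines.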
Columns and labels:
Assay in all cases: cleaved PARP positive nuclei fraction relative to DMSO control; melanoma cells; higher = more apoptosis
Conditions in all cases: library dose: low library concentration; 72 h
[1] = tested on: 501Mel
[2] = tested on: A101D
[3] = tested on: A2058
[4] = tested on: C32
[5] = tested on: CBRC008 (line from a melanoma biopsy)
[6] = tested on: CBRC014 (line from a melanoma biopsy)
[7] = tested on: CBRC016 (line from a melanoma biopsy)
[8] = tested on: CBRC017 (line from a melanoma biopsy)
[9] = tested on: COLO792
[10] = tested on: COLO800
[11] = tested on: COLO829
[12] = tested on: G361
[13] = tested on: IPC-298
[14] = tested on: IST-MEL1
[15] = tested on: LB2518-MEL
[16] = tested on: LOXIMVI

Compound	cleaved PARP positive nuclei fraction [1]	cleaved PARP positive nuclei fraction [2]	cleaved PARP positive nuclei fraction [3]	cleaved PARP positive nuclei fraction [4]	cleaved PARP positive nuclei fraction [5]	cleaved PARP positive nuclei fraction [6]	cleaved PARP positive nuclei fraction [7]	cleaved PARP positive nuclei fraction [8]	cleaved PARP positive nuclei fraction [9]	cleaved PARP positive nuclei fraction [10]	cleaved PARP positive nuclei fraction [11]	cleaved PARP positive nuclei fraction [12]	cleaved PARP positive nuclei fraction [13]	cleaved PARP positive nuclei fraction [14]	cleaved PARP positive nuclei fraction [15]	cleaved PARP positive nuclei fraction [16]
O=c1[nH]nc(Sc2ncc([N+](=O)[O-])s2)n1-c1ccc2c(c1)OCCO2 + O=S(=O)(c1ccccc1)N(CC(F)(F)F)c1ccc(C(O)(C(F)(F)F)C(F)(F)F)cc1 [T0901317] (first compound 0.2 µM, partner dose 1.4 µM)	82.9%	75.5%	79.7%	85.9%	81.9%	105%	59.1%	116%	98.4%	98.8%	78.6%	184%	32.6%	186%	99.5%	161%
Cc1ccc(Nc2nccc(N(C)c3ccc4c(C)n(C)nc4c3)n2)cc1S(N)(=O)=O [Pazopanib] + COc1cc(N2CCC(N3CCN(C)CC3)CC2)ccc1Nc1ncc(Cl)c(Nc2ccccc2S(=O)(=O)C(C)C)n1 [NVP-TAE684] (first compound 0.4 µM, partner dose 0.08 µM)	72.9%	31.5%	98.5%	75.8%	59.4%	108%	15.7%	111%	142%	185%	160%	92.4%	206%	119%	71.3%	79.5%
CCCCCCCCCCCCCCCCCCOP(=O)([O-])OC1CC[N+](C)(C)CC1 [Perifosine] + COc1cc(N2CCC(N3CCN(C)CC3)CC2)ccc1Nc1ncc(Cl)c(Nc2ccccc2S(=O)(=O)C(C)C)n1 [NVP-TAE684] (first compound 0.4 µM, partner dose 0.08 µM)	88.7%	27.3%	246%	157%	221%	91.8%	71.4%	113%	74.6%	79.8%	118%	45.7%	65.1%	108%	36.9%	32.5%
CC[C@]1(O)C[C@H]2CN(CCc3c([nH]c4ccccc34)[C@@](C(=O)OC)(c3cc4c(cc3OC)N(C=O)[C@H]3[C@@](O)(C(=O)OC)[C@H](OC(C)=O)[C@]5(CC)C=CCN6CC[C@]43[C@@H]65)C2)C1 [vincristine] + O=S(=O)(c1ccccc1)N(CC(F)(F)F)c1ccc(C(O)(C(F)(F)F)C(F)(F)F)cc1 [T0901317] (first compound 0.0001 µM, partner dose 1.4 µM)	83.1%	66.7%	1060%	248%	178%	110%	107%	68.8%	98.3%	89.8%	127%	107%	84.1%	25.8%	84%	158%
COc1cc([C@@H]2c3cc4c(cc3[C@@H](O[C@@H]3O[C@@H]5CO[C@@H](C)O[C@H]5[C@H](O)[C@H]3O)[C@H]3COC(=O)[C@H]23)OCO4)cc(OC)c1O [etoposide] + Oc1nc(-c2ccc(C(F)(F)F)cc2)nc2c1CSCC2 [XAV939] (first compound 0.02 µM, partner dose 2 µM)	68.3%	85.5%	169%	77.2%	71.4%	88.5%	66.1%	242%	254%	124%	78.8%	79.4%	100%	24.5%	77.2%	37.1%
Cc1ccc(Nc2nccc(N(C)c3ccc4c(C)n(C)nc4c3)n2)cc1S(N)(=O)=O [Pazopanib] + c1cc(-c2cnn3cc(-c4ccc(OCCN5CCCCC5)cc4)cnc23)ccn1 [Dorsomorphin] (first compound 0.4 µM, partner dose 0.4 µM)	229%	16.8%	119%	48.2%	64.2%	104%	29.6%	92.6%	86.8%	71.3%	227%	109%	107%	110%	190%	121%
O=C(/C=C/c1cccnc1)NCCCCC1CCN(C(=O)c2ccccc2)CC1 + O=C(O)C(=O)Nc1sc2c(c1C(=O)O)CCNC2 [TCS401] (first compound 0.01 µM, partner dose 1.66667 µM)	42.1%	36.5%	34.7%	34.2%	1130%	75.2%	141%	332%	109%	236%	229%	2500%	252%	180%	139%	62.4%
O=C(/C=C/c1cccnc1)NCCCCC1CCN(C(=O)c2ccccc2)CC1 + COc1ccc(-c2ccc3c(N4CCOCC4)nc(N4C[C@@H](C)O[C@@H](C)C4)nc3n2)cc1CO [KU0063794] (first compound 0.01 µM, partner dose 0.02 µM)	101%	21%	98.5%	110%	4010%	122%	231%	420%	216%	263%	184%	2080%	223%	150%	79.8%	88.2%
CC[C@]1(O)C[C@H]2CN(CCc3c([nH]c4ccccc34)[C@@](C(=O)OC)(c3cc4c(cc3OC)N(C=O)[C@H]3[C@@](O)(C(=O)OC)[C@H](OC(C)=O)[C@]5(CC)C=CCN6CC[C@]43[C@@H]65)C2)C1 [vincristine] + Oc1nc(-c2ccc(C(F)(F)F)cc2)nc2c1CSCC2 [XAV939] (first compound 0.0001 µM, partner dose 2 µM)	66.5%	45.1%	1110%	44.7%	130%	77.6%	50.8%	130%	113%	68.2%	55.7%	97.4%	48.1%	90.3%	152%	28.3%
N#CC[C@H](C1CCCC1)n1cc(-c2ncnc3[nH]ccc23)cn1 [ruxolitinib] + Cc1cc([N+](=O)[O-])ccc1NS(=O)(=O)c1cc(Cl)ccc1Cl [FH535] (first compound 1 µM, partner dose 1 µM)	166%	24%	90.9%	48.4%	339%	132%	1820%	185%	93.3%	14.8%	70.3%	57.5%	130%	162%	149%	250%
CC[C@]1(O)C[C@H]2CN(CCc3c([nH]c4ccccc34)[C@@](C(=O)OC)(c3cc4c(cc3OC)N(C=O)[C@H]3[C@@](O)(C(=O)OC)[C@H](OC(C)=O)[C@]5(CC)C=CCN6CC[C@]43[C@@H]65)C2)C1 [vincristine] + N#Cc1c(O)c2c(-c3ccc(-c4ccccc4O)cc3)csc2[nH]c1=O [A769662] (first compound 0.0001 µM, partner dose 2 µM)	50.8%	70.1%	1610%	327%	249%	98.3%	114%	99.3%	115%	55.4%	157%	110%	36.3%	85.5%	84.5%	185%
COc1cc([C@@H]2c3cc4c(cc3[C@@H](O[C@@H]3O[C@@H]5CO[C@@H](C)O[C@H]5[C@H](O)[C@H]3O)[C@H]3COC(=O)[C@H]23)OCO4)cc(OC)c1O [etoposide] + CCCCCCCCCCCC1=C(O)C(=O)C=C(O)C1=O [Embelin] (first compound 0.02 µM, partner dose 1.2 µM)	68%	21%	147%	88.5%	80%	99.2%	89.1%	121%	93.1%	125%	77%	103%	48.2%	113%	67.3%	45.5%
O=C(Nc1cc(C(F)(F)F)cc(C(F)(F)F)c1)c1cc(Cl)ccc1O + O=C(Nc1ccccc1)c1cc([N+](=O)[O-])ccc1Cl [GW9662] (first compound 0.016 µM, partner dose 2 µM)	61.9%	71.8%	38.8%	81.1%	57.2%	111%	246%	184%	98.6%	15.7%	156%	63.1%	30.2%	68.6%	88.1%	124%
O=c1[nH]nc(Sc2ncc([N+](=O)[O-])s2)n1-c1ccc2c(c1)OCCO2 + Oc1cc(-c2nc(-c3ccccc3)[nH]c2-c2ccncc2)ccc1Cl [L779450] (first compound 0.2 µM, partner dose 0.2 µM)	168%	28.4%	64.4%	44.1%	74.5%	106%	70.8%	167%	14%	173%	85.5%	64.6%	145%	84.5%	90.4%	113%
Cc1cn(-c2cc(NC(=O)c3ccc(C)c(Nc4nccc(-c5cccnc5)n4)c3)cc(C(F)(F)F)c2)cn1 [nilotinib] + O=c1cc(-c2cccc3c2Sc2ccccc2S3)oc(N2CCOCC2)c1 [KU55933] (first compound 0.2 µM, partner dose 1 µM)	183%	14.1%	84.2%	132%	159%	112%	79.3%	76%	77.7%	68.9%	48.9%	126%	34.6%	117%	28.5%	50.8%
O=C(/C=C/c1cccnc1)NCCCCC1CCN(C(=O)c2ccccc2)CC1 + CCc1ccc(CCOc2ccc(CC3SC(=O)NC3=O)cc2)nc1 [pioglitazone] (first compound 0.01 µM, partner dose 2 µM)	107%	14%	33.3%	173%	2480%	112%	405%	764%	470%	597%	310%	1880%	345%	34.5%	221%	92.2%

Some entries already given with just cleaved PARP positive nuclei fraction [12], cleaved PARP positive nuclei fraction [10] and cleaved PARP positive nuclei fraction [7]:
Compound,cleaved PARP positive nuclei fraction [12],cleaved PARP positive nuclei fraction [10],cleaved PARP positive nuclei fraction [7]
"CC[C@]1(O)C[C@H]2CN(CCc3c([nH]c4ccccc34)[C@@](C(=O)OC)(c3cc4c(cc3OC)N(C=O)[C@H]3[C@@](O)(C(=O)OC)[C@H](OC(C)=O)[C@]5(CC)C=CCN6CC[C@]43[C@@H]65)C2)C1 [vincristine] + N#Cc1c(O)c2c(-c3ccc(-c4ccccc4O)cc3)csc2[nH]c1=O [A769662] (first compound 0.0001 µM, partner dose 2 µM)",110%,55.4%,114%
"COc1cc([C@@H]2c3cc4c(cc3[C@@H](O[C@@H]3O[C@@H]5CO[C@@H](C)O[C@H]5[C@H](O)[C@H]3O)[C@H]3COC(=O)[C@H]23)OCO4)cc(OC)c1O [etoposide] + CCCCCCCCCCCC1=C(O)C(=O)C=C(O)C1=O [Embelin] (first compound 0.02 µM, partner dose 1.2 µM)",103%,125%,89.1%
